Assay results from publication PMC2579577.
Results are given in words; binding and its absence hold for the method and conditions named. In cells and extracts the contact can be indirect. Some results given as binding are weak or reduced against the parent protein; the word gives no strength. For some of these results: Tags and fused reporters may be left off the sequences shown.

Sequences of proteins named here, by UniProt entry; tags and fusion partners are left off.
UniProt P29067: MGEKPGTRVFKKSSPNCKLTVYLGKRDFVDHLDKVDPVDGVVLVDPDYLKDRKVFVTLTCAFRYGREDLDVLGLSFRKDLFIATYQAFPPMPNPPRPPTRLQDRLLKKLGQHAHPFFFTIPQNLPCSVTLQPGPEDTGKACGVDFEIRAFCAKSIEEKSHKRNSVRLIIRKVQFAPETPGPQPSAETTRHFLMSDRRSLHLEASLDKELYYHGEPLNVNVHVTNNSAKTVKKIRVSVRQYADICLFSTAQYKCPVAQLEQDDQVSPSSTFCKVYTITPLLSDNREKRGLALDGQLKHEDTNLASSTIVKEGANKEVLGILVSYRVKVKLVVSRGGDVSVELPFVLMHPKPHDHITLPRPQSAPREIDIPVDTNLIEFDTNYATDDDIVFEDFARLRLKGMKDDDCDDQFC
UniProt P28741: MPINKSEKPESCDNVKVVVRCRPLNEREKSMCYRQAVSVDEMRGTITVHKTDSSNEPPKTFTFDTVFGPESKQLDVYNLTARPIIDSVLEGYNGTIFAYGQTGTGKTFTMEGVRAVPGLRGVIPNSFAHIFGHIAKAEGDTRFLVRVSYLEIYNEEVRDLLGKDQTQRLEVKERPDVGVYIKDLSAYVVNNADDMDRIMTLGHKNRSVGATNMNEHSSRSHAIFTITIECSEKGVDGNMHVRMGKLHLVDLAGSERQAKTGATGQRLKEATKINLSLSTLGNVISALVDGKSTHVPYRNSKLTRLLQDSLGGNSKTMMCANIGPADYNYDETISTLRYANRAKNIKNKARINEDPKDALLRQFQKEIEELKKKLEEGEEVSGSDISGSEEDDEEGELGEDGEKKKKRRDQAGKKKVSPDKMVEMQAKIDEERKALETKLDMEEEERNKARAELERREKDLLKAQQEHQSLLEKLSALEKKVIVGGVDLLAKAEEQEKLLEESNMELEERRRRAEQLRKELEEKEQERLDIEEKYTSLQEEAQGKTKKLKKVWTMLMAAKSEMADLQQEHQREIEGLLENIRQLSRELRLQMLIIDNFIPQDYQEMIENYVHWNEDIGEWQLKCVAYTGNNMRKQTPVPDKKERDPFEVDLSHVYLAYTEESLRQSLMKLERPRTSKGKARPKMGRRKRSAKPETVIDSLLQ
UniProt Q9Y496: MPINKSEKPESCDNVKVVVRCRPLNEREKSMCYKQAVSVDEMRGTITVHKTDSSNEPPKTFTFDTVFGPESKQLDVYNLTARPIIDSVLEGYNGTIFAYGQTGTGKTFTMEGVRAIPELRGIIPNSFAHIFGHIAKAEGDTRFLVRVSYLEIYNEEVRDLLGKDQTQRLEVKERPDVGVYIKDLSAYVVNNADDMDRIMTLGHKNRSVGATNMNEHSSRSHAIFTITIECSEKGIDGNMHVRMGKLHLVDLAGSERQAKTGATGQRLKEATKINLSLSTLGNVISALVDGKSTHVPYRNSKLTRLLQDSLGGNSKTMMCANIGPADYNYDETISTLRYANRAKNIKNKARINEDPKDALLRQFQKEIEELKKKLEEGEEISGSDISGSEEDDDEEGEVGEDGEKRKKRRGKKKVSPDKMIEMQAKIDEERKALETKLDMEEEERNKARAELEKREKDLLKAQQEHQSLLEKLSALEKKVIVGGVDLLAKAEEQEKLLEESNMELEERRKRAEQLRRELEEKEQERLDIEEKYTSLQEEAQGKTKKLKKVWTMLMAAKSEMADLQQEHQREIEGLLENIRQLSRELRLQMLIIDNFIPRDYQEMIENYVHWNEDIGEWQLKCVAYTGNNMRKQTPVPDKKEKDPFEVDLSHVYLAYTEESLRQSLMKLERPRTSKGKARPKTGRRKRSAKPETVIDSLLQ

T1: myc-tagged 14-3-3η (UniProt Q04917)
T1 sequence: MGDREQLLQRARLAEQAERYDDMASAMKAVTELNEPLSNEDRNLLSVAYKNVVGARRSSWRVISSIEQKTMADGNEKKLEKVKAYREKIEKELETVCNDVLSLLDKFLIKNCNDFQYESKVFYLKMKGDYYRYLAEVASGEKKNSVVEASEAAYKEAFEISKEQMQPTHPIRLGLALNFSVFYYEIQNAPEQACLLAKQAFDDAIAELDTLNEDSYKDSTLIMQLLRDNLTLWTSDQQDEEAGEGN


Legend:
GST-βarr2 fusion protein = GST-βarr2 fusion protein (UniProt P29067); assay: pull-down; 25 µg GST fusion immobilized on glutathione-Sepharose beads; cell lysates (500 µg of total proteins) incubated 12 h at 4°C in 50 mM Tris HCl pH 7.5, 150 mM NaCl, 1% NP40, 0.5% sodium deoxycholate; washes up to 500 mM NaCl; Western blot; only the target purified
myc-tagged 14-3-3η = molecular target: T1, myc-tagged 14-3-3η; assay: co-IP; COS cells transfected; lysates immunoprecipitated with 9E10 anti-myc antibody, 12 h at 4°C; Western blot with antibodies against Flag, Myc or Kif3A
[1] = molecular target: Flag-tagged βarr2 (wild type) (rat) (UniProt P29067); assay: co-IP; COS-1 cells transiently transfected; lysates (500 µg) incubated 12 h at 4°C with M2 anti-Flag affinity agarose; washes up to 500 mM NaCl; Western blot

| binding (GST-βarr2 fusion protein) | Molecule | also measured |
| --- | --- | --- |
| binds | Endogenous Kif3A (MEFs) (from UniProt P28741 1-701) |  |
|  | Flag-tagged βarr2 (wild type) (from UniProt P29067 1-410) | binding (myc-tagged 14-3-3η): binds |
| binds | Endogenous Kif3A (RPE1 cells) (from UniProt Q9Y496 1-699) |  |
|  | GFP-tagged 14-3-3η (protein, UniProt Q04917 1-246) MGDREQLLQRARLAEQAERYDDMASAMKAVTELNEPLSNEDRNLLSVAYKNVVGARRSSWRVISSIEQKTMADGNEKKLEKVKAYREKIEKELETVCNDVLSLLDKFLIKNCNDFQYESKVFYLKMKGDYYRYLAEVASGEKKNSVVEASEAAYKEAFEISKEQMQPTHPIRLGLALNFSVFYYEIQNAPEQACLLAKQAFDDAIAELDTLNEDSYKDSTLIMQLLRDNLTLWTSDQQDEEAGEGN | binding [1]: binds |
